Experimental data reported in US20020045590A1.
These are yes or no findings as the source states them, for the method shown. Some binding calls cover weakened binding; strength is not graded here.

Chains of the proteins cited; added tags and fusions are not shown. Lines headed by an entry give the natural chain unless they say otherwise; changes in a name come on top. Residues count along the entry.
UniProt P04386: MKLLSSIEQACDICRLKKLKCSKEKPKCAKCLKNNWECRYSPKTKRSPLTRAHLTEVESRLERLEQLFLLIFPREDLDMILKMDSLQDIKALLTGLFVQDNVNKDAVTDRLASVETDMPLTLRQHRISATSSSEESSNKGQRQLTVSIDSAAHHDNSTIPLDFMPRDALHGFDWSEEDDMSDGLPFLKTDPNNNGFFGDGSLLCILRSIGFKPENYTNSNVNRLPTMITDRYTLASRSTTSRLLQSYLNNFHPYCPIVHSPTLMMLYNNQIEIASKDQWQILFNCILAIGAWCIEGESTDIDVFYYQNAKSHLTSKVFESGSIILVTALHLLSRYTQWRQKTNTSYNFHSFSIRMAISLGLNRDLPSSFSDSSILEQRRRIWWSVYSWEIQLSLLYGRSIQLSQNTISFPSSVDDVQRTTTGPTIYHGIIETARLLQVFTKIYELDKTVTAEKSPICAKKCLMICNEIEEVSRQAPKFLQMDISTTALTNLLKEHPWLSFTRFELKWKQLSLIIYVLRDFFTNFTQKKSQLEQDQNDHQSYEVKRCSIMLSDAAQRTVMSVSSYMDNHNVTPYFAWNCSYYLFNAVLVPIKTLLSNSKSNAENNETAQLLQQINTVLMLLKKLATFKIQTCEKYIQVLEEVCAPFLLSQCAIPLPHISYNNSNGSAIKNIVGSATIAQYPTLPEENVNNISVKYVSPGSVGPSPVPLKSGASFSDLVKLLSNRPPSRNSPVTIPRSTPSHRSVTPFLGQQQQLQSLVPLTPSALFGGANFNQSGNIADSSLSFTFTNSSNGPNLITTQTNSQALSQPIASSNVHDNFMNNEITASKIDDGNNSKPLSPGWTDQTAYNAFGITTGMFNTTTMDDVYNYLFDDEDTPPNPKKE
UniProt Q63622, residues 193-279: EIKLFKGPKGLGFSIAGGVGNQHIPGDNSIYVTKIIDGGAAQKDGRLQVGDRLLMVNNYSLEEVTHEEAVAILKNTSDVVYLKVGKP

Columns and labels:
[1] = biological target: PDZ domain of nNOS fused in frame with the GAL4 DNA-binding domain (pGBT9-nNOS) (UniProt P04386); assay: yeast two-hybrid
[2] = biological target: PDZ domain of nNOS fused in frame with the GAL4 DNA-binding domain (pGBT9-nNOS) (UniProt P04386); assay: yeast two-hybrid, growth on -LTH medium

binding [1]: binds | binding [2]: binds
Substance: PDZ domain of PSD-93 fused in frame with the GAL4 activation domain (pGAD424-PSD-93) (from UniProt Q63622 193-279)
